Test results: patent EP0819124B1, “AZOLE COMPOUNDS WITH ANTIMYCOTIC ACTIVITY FOR HUMAN AND VETERINARY USE” (ZAMBON GROUP S.p.A., priority 1995, dated 1996)
At least one compound was matched to its structure with a doubt left.

Tested on: C. glabrata (2)
Assay: In vitro antimycotic activity, strain panel (Table 2)
Type: cell-based, Candida glabrata
Design: unit not given beside the values
Settings: 2 strains, single value or range printed under head MIC50 MIC90
Method: The determination of the activity inhibiting the growth of mycetes was evaluated by the macromethod of scalar brothdilutions in geometrical progression (M.R. McGinnis and M.G. Rinaldi, "Antifungal drugs: mechanisms of action, drug resistance, susceptibility testing and assay of activity in biological fluids", in Antibiotic in Laboratory Medicine, Ed. V. Lorian, Baltimora 1991).
As culture media Yeast Nitrogen Base broth (YNB) and Sabouraud Dextrose broth (SDB) were used for yeasts and moulds, respectively.
The results obtained in SDB (after incubation at 28°C for 7 days) were expressed as minimum inhibiting concentrations (MIC) the growth of mycetes, while those obtained in YNB (after incubation at 35°C for 48 hours) were expressed as concentrations able to inhibit at 50% (IC50) the growth of the yeast.
As reference compounds Fluconazole, Itraconazole and Genaconazole were used.
Note to the table: MIC expressed as µg/ml Within brackets the number of tested strains Table 3

CCC(C)n1ncn(-c2ccc(N3CCN(c4ccc(OCC5COC(Cn6cncn6)(c6ccc(Cl)cc6Cl)O5)cc4)CC3)cc2)c1=O (stereo not shown) [Itraconazole, reference compound]
MIC: 2->16
